Test results as given in patent US11179445B2, “Pharmaceutical composition and biomaterial comprising fusion peptide in which bone tissue-selective peptide bound to parathyroid hormone (PTH) or fragment thereof” (Nano Intelligent Biomedical Engineering Corporation Co. Ltd., priority 2017, dated 2021).
Part of at least one peptide drawing is inferred or uncertain, most often the ends.

What was measured:
[1] = tested on: osteoporosis-induced mice; test: Efficacy test in osteoporosis animal: microCT and bone mineral density (BMD) of femur; assay type: in vivo; conditions: ovariectomized ICR mice; PTH 20 μg/kg daily for 3 months, fusion peptide 80 pg/kg weekly for 6 months
[2] = tested on: bone tissue near an implant; test: Bone migration test: distribution of fluorescence-labeled peptide in bone tissue near an implant; assay type: in vivo; conditions: cyanine 5.5-labeled peptide in collagen gel, 100 μL injected into surgical site, beagles, 3 weeks after transplantation, confocal microscopy

CC[C@H](C)[C@H](NC(=O)[C@H](CCC(=O)O)NC(=O)[C@H](CO)NC(=O)[C@@H](NC(=O)[C@@H](N)CO)C(C)C)C(=O)N[C@@H](CCC(N)=O)C(=O)N[C@@H](CC(C)C)C(=O)N[C@@H](CCSC)C(=O)N[C@@H](Cc1c[nH]cn1)C(=O)N[C@@H](CC(N)=O)C(=O)N[C@@H](CC(C)C)C(=O)NCC(=O)N[C@@H](CCCCN)C(=O)N[C@@H](Cc1c[nH]cn1)C(=O)N[C@@H](CC(C)C)C(=O)N[C@@H](CC(N)=O)C(=O)N[C@@H](CO)C(=O)N[C@@H](CCSC)C(=O)N[C@@H](CCC(=O)O)C(=O)N[C@@H](CCCNC(=N)N)C(=O)N[C@H](C(=O)N[C@@H](CCC(=O)O)C(=O)N[C@@H](Cc1c[nH]c2ccccc12)C(=O)N[C@@H](CC(C)C)C(=O)N[C@@H](CCCNC(=N)N)C(=O)N[C@@H](CCCCN)C(=O)N[C@@H](CCCCN)C(=O)N[C@@H](CC(C)C)C(=O)N[C@@H](CCC(N)=O)C(=O)N[C@@H](CC(=O)O)C(=O)N[C@H](C(=O)N[C@@H](Cc1c[nH]cn1)C(=O)N[C@@H](CC(N)=O)C(=O)N[C@@H](Cc1ccccc1)C(=O)O)C(C)C)C(C)C [PTH, reference compound]
variation in BMD (bone mineral density) in the femoral head [1]: increase in BMD variation at up to one month and a decrease starting at two months | fluorescence in the surrounding bone tissue near the implant [2]: almost no fluorescence in the surrounding bone tissue
